Measurements reported in PubChem BioAssay AID1259405 (NCATS, 2018)

Test: 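Silenced genes that increase secreted GFP made by CHO cells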 (primary screen)
Cells: Chinese hamster CHO-K1 ovary cells with stable secreted eGFP expression
Reagent: single siRNA against mouse genes, 0.8 pmol siRNA per well (2 µl of 400 nM stock)
Timing: 3 days
Read-out: 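Per-well intracellular GFP measured by laser scanning cytometry, plus viability from ATP luminescence, each relative to plate median of non-targeting control wells, in %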
Reading the numbers: GFP, % of control: higher = more GFP per well, higher productivity
Hit rule: 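a knock-down is called active if GFP reaches 120% or more of non-targeting control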
Shown is a random part of about 50,000 reagents tested. About 4,000 of them (8%) count as active. 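Mouse siRNA library applied to hamster cells; one well for each siRNA.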 Not all columns of the deposit are shown.

GFP, % of control, by gene symbol and reagent
Nhlrc2: SID363581913 73.9 inactive; SID363589407 66.9 inactive
Plag1: SID363573556 73.2 inactive; SID363581300 34 inactive; SID363583764 41.8 inactive
Slc6a11: SID363574594 77 inactive; SID363575650 90.6 inactive; SID363580226 75.7 inactive
Ndufa10: SID363572892 107 inactive; SID363577468 79 inactive; SID363580988 75.1 inactive
Spout1: SID363539507 68.8 inactive; SID363560808 121 active; SID363564898 73.3 inactive
Ssbp4: SID363545845 88.9 inactive; SID363549358 70.6 inactive; SID363563164 72.7 inactive
Pofut1: SID363581814 64.4 inactive; SID363589308 166 active; SID363589600 75.4 inactive; SID363589601 68.2 inactive; SID363589602 74.3 inactive
Itga9: SID363573477 75.4 inactive; SID363588716 66.1 inactive
Vmn1r72: SID363544981 133 active; SID363551309 49.6 inactive; SID363557858 53.6 inactive
Kcnk9: SID363547742 132 active; SID363558511 40.8 inactive; SID363560269 108 inactive
Dtd2: SID363545716 55.5 inactive; SID363549229 97.7 inactive; SID363563035 124 active
Baiap2l1: SID363544264 127 active; SID363550592 83.2 inactive; SID363557141 34 inactive
Gtf2h2: SID363573296 72.8 inactive; SID363588535 113 inactive
Duxbl1: SID363545832 60.6 inactive; SID363549345 79.1 inactive; SID363563151 57.5 inactive
Or5j3: SID363544407 76.3 inactive; SID363550735 71.7 inactive; SID363557284 77.2 inactive
Sp3: SID363547509 13.2 inactive; SID363558278 63.3 inactive; SID363560036 84.6 inactive
Rgs1: SID363570224 125 active; SID363576560 99.9 inactive; SID363579728 39.2 inactive
Naa80: SID363570565 74.6 inactive; SID363579365 98 inactive; SID363583237 76.3 inactive
Snx30: SID363553793 44.4 inactive; SID363561750 65.9 inactive; SID363565488 59.3 inactive
Tmem45b: SID363547170 47.4 inactive; SID363549982 75.9 inactive; SID363588036 136 active

Reformatted: 9 of the entries above
gene symbol,PubChem SID,"GFP, % of control",activity call
Baiap2l1,SID363557141,34,inactive
Gtf2h2,SID363573296,72.8,inactive
Gtf2h2,SID363588535,113,inactive
Duxbl1,SID363545832,60.6,inactive
Duxbl1,SID363549345,79.1,inactive
Duxbl1,SID363563151,57.5,inactive
Or5j3,SID363544407,76.3,inactive
Or5j3,SID363550735,71.7,inactive
Or5j3,SID363557284,77.2,inactive
